Experimental data as given in PubChem BioAssay AID2685 (National Center for Advancing Translational Sciences (NCATS), 2010).
Screen size: about 320,000 compounds; about 2,100 (0.66%) were called active. The inconclusive results got no clear call from the source; some entries with a clear call stand among them for comparison. The call rests on the fitted dose curve; in most records, active means well fitted inhibition curve with a large enough effect in the signal ratio, with a control signal flat (not every such curve was filed as active); inconclusive means small, poorly fitted or top-dose-only effect, or effect the other way, or a change in a side signal; inactive means flat fitted curve, though single readings scatter; the % refers to the signal ratio. A potency beside an inconclusive call is a rough fit, not a confirmed value.

Assay: qHTS Assay for Lipid Storage Modulators in Drosophila S3 Cells
Settings: BODIPY lipid droplet fluorescence, 18-24 h, cells fed with added oleic acid; lipid storage change, negative = inhibition: at 46.1 µM (top of the series) unless noted
Summary of the method: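 Drosophila S3 cells got compounds at several concentrations plus oleic acid (400 uM solution). Laser-scanning cytometry with 488 nm excitation read lipid droplets at 500-530 nm and cells at 575-640 nm. Percent activity was relative to 20 uM Triacsin C.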
On the % scale 0 is the no-effect control and ±100 the full control effect; potency means the concentration at half of the fitted maximal effect.

| SMILES | Potency | lipid storage change, negative = inhibition |
| --- | --- | --- |
| Cc1ccc(C#N)c(SCc2ccccc2[N+](=O)[O-])n1 | inconclusive: 29.1 µM [activator, single point] |  |
| O=C(Nc1cccc2ccccc12)c1ccc(Br)o1 | inconclusive: 4.11 µM [activator, single point] |  |
| CCCCn1c(N)c(NCc2ccccc2)c(=O)[nH]c1=O |  | inconclusive: -0.662% |
| CCc1nc(SCC(=O)N2c3ccccc3Sc3ccccc32)c2ccccc2n1 |  | inconclusive: 1.51% |
| O=C(CSc1nccc(=O)[nH]1)Nc1ccc(Oc2ccccc2)cc1 | inconclusive: 29.1 µM [activator, single point] |  |
| O=P(c1ccccc1)(c1ccccc1)C(O)c1ccc(Br)cc1 (stereo not given) | inconclusive: 0.116 µM [falling, full curve, poor fit] |  |
| CCOCCCNCC(=O)Nc1ccccc1N1CCOCC1 | inconclusive: 0.206 µM [falling, full curve, poor fit] |  |
| Cn1cccc1-c1cc(C(=O)N/N=C/c2ccc(Cl)cc2)[nH]n1 | inconclusive: 0.116 µM [activator, full curve] |  |
| COc1cc(C)ccc1OCc1cc(C(=O)NCCN2CCOCC2)no1 |  | inconclusive: -32.1% |
| COCCOC1CCN(C(=O)c2cc(COc3ccc(-n4cncn4)cc3)on2)CC1 |  | inconclusive: 71.9% |
| O=C(NCc1cccnc1)c1ccc(NC(=O)c2ccco2)cc1 |  | inconclusive: -9.89% |
| COC(=O)C1C(=O)c2c([nH]c(C(=O)OC3CCCC3C)c2C)CC1C (stereo not given) |  | inconclusive: -29.8% |
| CCN(CC(=O)NCc1cccs1)C(=O)COc1ccc(C(C)=O)cc1 | inconclusive: 0.0041 µM [activator, full curve, poor fit] |  |
| COc1ccc(-c2nnc(SCc3cc(C)ccc3C)n2N)cc1 | inconclusive: 25.9 µM [falling, single point] |  |
| COc1ccc(OCC(=O)Nc2ccncc2)cc1 |  | inconclusive: -23.1% |
| COCCCNc1nc(N)c([N+](=O)[O-])c(NC2CCCCC2)n1 |  | inconclusive: -6.93% |
| COC(=O)c1nnn(-c2nonc2N)c1COc1ccc(C=O)cc1OC |  | inconclusive: 12% |
| COc1ccc(N2C(=O)CSC(c3ccccc3)C2=O)cc1 (stereo not given) | inconclusive: 5.8 µM [falling, partial curve, poor fit] |  |
| C=CCn1c(C(O)c2ccccc2)nc2ccccc21 (stereo not given) | inconclusive: 2.31 µM [activator, full curve, poor fit] |  |
| O=C(CSc1ncnc2c1oc1ccccc12)Nc1nc2ccccc2s1 |  | inconclusive: -46.7% |
| COc1ccc(C(=S)N2CCOCC2)cc1OC(=O)c1ccc([N+](=O)[O-])cc1[N+](=O)[O-] | inconclusive: 29.1 µM [activator, single point] |  |
| Cc1ccc(S(=O)(=O)N2CCCCC2)cc1C(=O)NC1CCCCC1 |  | inconclusive: 36.7% |
| Nc1nc(NCC2CCCO2)nc(NCC2CCCO2)c1[N+](=O)[O-] (stereo not given) |  | inconclusive: 51.4% [activator] |
| O=S(=O)(NCc1ccco1)c1cccc(S(=O)(=O)N2CCOCC2)c1 | inconclusive: 0.0651 µM [falling, full curve, poor fit] |  |
| CCN(CC(=O)Nc1ccccc1C(F)(F)F)C(=O)CN1C(=O)NC2(CCCC2)C1=O |  | inconclusive |

Reprinted from the entries so far (20 entries):

| SMILES | Potency | lipid storage change, negative = inhibition |
| --- | --- | --- |
| O=C(CSc1nccc(=O)[nH]1)Nc1ccc(Oc2ccccc2)cc1 | inconclusive: 29.1 µM [activator, single point] |  |
| O=P(c1ccccc1)(c1ccccc1)C(O)c1ccc(Br)cc1 (stereo not given) | inconclusive: 0.116 µM [falling, full curve, poor fit] |  |
| CCOCCCNCC(=O)Nc1ccccc1N1CCOCC1 | inconclusive: 0.206 µM [falling, full curve, poor fit] |  |
| Cn1cccc1-c1cc(C(=O)N/N=C/c2ccc(Cl)cc2)[nH]n1 | inconclusive: 0.116 µM [activator, full curve] |  |
| COc1cc(C)ccc1OCc1cc(C(=O)NCCN2CCOCC2)no1 |  | inconclusive: -32.1% |
| COCCOC1CCN(C(=O)c2cc(COc3ccc(-n4cncn4)cc3)on2)CC1 |  | inconclusive: 71.9% |
| O=C(NCc1cccnc1)c1ccc(NC(=O)c2ccco2)cc1 |  | inconclusive: -9.89% |
| COC(=O)C1C(=O)c2c([nH]c(C(=O)OC3CCCC3C)c2C)CC1C (stereo not given) |  | inconclusive: -29.8% |
| CCN(CC(=O)NCc1cccs1)C(=O)COc1ccc(C(C)=O)cc1 | inconclusive: 0.0041 µM [activator, full curve, poor fit] |  |
| COc1ccc(-c2nnc(SCc3cc(C)ccc3C)n2N)cc1 | inconclusive: 25.9 µM [falling, single point] |  |
| COc1ccc(OCC(=O)Nc2ccncc2)cc1 |  | inconclusive: -23.1% |
| COCCCNc1nc(N)c([N+](=O)[O-])c(NC2CCCCC2)n1 |  | inconclusive: -6.93% |
| COC(=O)c1nnn(-c2nonc2N)c1COc1ccc(C=O)cc1OC |  | inconclusive: 12% |
| COc1ccc(N2C(=O)CSC(c3ccccc3)C2=O)cc1 (stereo not given) | inconclusive: 5.8 µM [falling, partial curve, poor fit] |  |
| C=CCn1c(C(O)c2ccccc2)nc2ccccc21 (stereo not given) | inconclusive: 2.31 µM [activator, full curve, poor fit] |  |
| O=C(CSc1ncnc2c1oc1ccccc12)Nc1nc2ccccc2s1 |  | inconclusive: -46.7% |
| COc1ccc(C(=S)N2CCOCC2)cc1OC(=O)c1ccc([N+](=O)[O-])cc1[N+](=O)[O-] | inconclusive: 29.1 µM [activator, single point] |  |
| Cc1ccc(S(=O)(=O)N2CCCCC2)cc1C(=O)NC1CCCCC1 |  | inconclusive: 36.7% |
| Nc1nc(NCC2CCCO2)nc(NCC2CCCO2)c1[N+](=O)[O-] (stereo not given) |  | inconclusive: 51.4% [activator] |
| O=S(=O)(NCc1ccco1)c1cccc(S(=O)(=O)N2CCOCC2)c1 | inconclusive: 0.0651 µM [falling, full curve, poor fit] |  |

(more compounds)

| SMILES | Potency | lipid storage change, negative = inhibition |
| --- | --- | --- |
| CN(Cc1nccs1)C(=O)C1CCC(=O)N(CCc2cccc(F)c2)C1 (stereo not given) | inconclusive: 16.4 µM [activator, single point] |  |
| COc1cccc(CNC(=O)C2CCCN(S(=O)(=O)c3c(C)[nH]c(=O)[nH]c3=O)C2)c1 (stereo not given) |  | inconclusive: -28.6% |
| Cc1ccc(S(=O)(=O)/N=C2/NC(=O)/C(=C/c3ccc(Br)o3)S2)cc1 | inconclusive: 13 µM [rising, single point] |  |
| CCCC(=O)Nc1ccc2c(c1)nc(CN1CCCCC1)n2C |  | inconclusive: -29% |
| Cc1ccn2cc(-c3cccc(NC(=O)c4ccccc4)c3)nc2c1 | inconclusive: 0.366 µM [activator, full curve] |  |
| CC(NC(=O)c1ccc(S(=O)(=O)NCc2ccco2)cc1)c1ccc(F)cc1 (stereo not given) |  | inconclusive: 6.48% |
| COc1ccc(C(C)=O)cc1COc1cccnc1[N+](=O)[O-] |  | inconclusive: -3.05% |
| O=C(c1ccccc1)N(C1=NCCCCS1)c1ccccc1 |  | inconclusive: 20.6% |
| COc1cccc(CNC(=O)CC2C(=O)NCCN2Cc2ccoc2)c1OC (stereo not given) |  | inconclusive: -16.6% |
| O=C(COc1nsnc1N1CCOCC1)Nc1ccc(Cl)cc1 |  | inactive |
| CCOC(=O)c1ccc(N2C(=O)CC(N(Cc3ccc4c(c3)OCO4)C(=O)Nc3ccccc3)C2=O)cc1 (stereo not given) | inconclusive: 0.259 µM [activator, full curve] |  |
| CCn1ccc(C(=O)NC2=NCCS2)n1 |  | inconclusive: -9.58% |
| O=C(NC1CCCc2ccccc21)c1ccccn1 (stereo not given) | inconclusive: 8.2 µM [activator, partial curve] |  |
| COc1cccc(OC)c1C(=O)N1CCN(S(=O)(=O)c2ccc(C)cc2)CC1 | inconclusive: 0.146 µM [falling, full curve, poor fit] |  |
| CN1/C(=C/C(=O)CSc2ccccc2C(=O)O)C(C)(C)c2ccccc21 | inconclusive: 29.1 µM [falling, single point] |  |
| CCN(CC)CCNC(=O)CS(=O)Cc1nc(-c2ccc(Cl)cc2)oc1C (stereo not given) |  | inconclusive: 11.3% |
| CCOc1cc(CNC)ccc1OCC(=O)NC(C)(C)C |  | inconclusive: 18.9% |
| CCOc1ccc(NC(=O)CSc2nnc(CNC(=O)c3ccco3)o2)cc1 |  | inactive |
| COC(=O)c1ccc(C(=O)Nc2ccc3nc(-c4ccncc4)[nH]c3c2)cc1 |  | inconclusive: 11.1% |
| Cc1cc(Cl)cc(Br)c1OCCNCC(C)O (stereo not given) | inconclusive: 25.9 µM [falling, single point] |  |
| O=C(O)CC1COc2ccccc2N1C(=O)c1ccccc1Cl (stereo not given) |  | inconclusive: 13.1% |
| COc1cc(/C=C2\C(=N)N3N=C(C)SC3=NC2=O)cc(OC)c1OCCOc1ccccc1C |  | inconclusive: -59% |
| COc1cc(NC(=S)NN2CCN(C)CC2)cc(OC)c1OC |  | inconclusive: -5.02% |
| CC1CCN(S(=O)(=O)c2ccc3c(c2)N(CC(=O)NCCN2C(C)CCCC2C)C(=O)CS3)CC1 (stereo not given) |  | inactive |
| Cc1ccc(C(=O)OCC(=O)NCCNC(=O)COC(=O)c2ccc(C)s2)s1 |  | inconclusive |

| SMILES | Potency | lipid storage change, negative = inhibition |
| --- | --- | --- |
| COc1cccc(NC(=S)NCc2ccco2)c1 |  | inconclusive: -17.6% |
| Cc1cc(C(=O)Nc2cccc([N+](=O)[O-])c2C)cs1 |  | inconclusive: -0.53% |
| N#Cc1cc2c(=O)n3ccccc3nc2n(CCCn2ccnc2)c1=N |  | inconclusive: 15.5% |
| O=C(O)c1ccc(S(=O)(=O)Nc2ccc(O)c(Sc3nc4ccccc4s3)c2)cc1 | inconclusive: 4.11 µM [falling, partial curve] |  |
| O=C(c1ccncc1)c1nccn1-c1ccccn1 |  | inconclusive: 10.1% |
| CCOC(=O)N1CCN(C(=O)c2ccc(CN(c3ccccc3)S(C)(=O)=O)cc2)CC1 | inconclusive: 6.51 µM [activator, single point] |  |
| Cc1c(C)c2ccc(OCC(=O)N3CC[C@@]4(O)CCCC[C@H]4C3)c(C)c2oc1=O | inconclusive: 18.4 µM [falling, partial curve] |  |
| CCOC(=O)c1c(NC(=O)CSc2nnc3ccccn23)sc2c1CCC2 |  | inconclusive: 18% |
| COC(CCN(C)C)(c1ccccc1)c1ccccc1 | active: 0.184 µM |  |
| COc1cc(S(=O)(=O)Nc2c(C)cc(C)cc2C)ccc1Cl | inconclusive: 0.291 µM [activator, partial curve, poor fit] |  |
| CC(=O)OCC1=C(C(=O)O)N2C(=O)C(NC(=O)c3ccc(F)cc3)C2SC1 (stereo not given) | inconclusive: 29.1 µM [cytotoxic, single point] |  |
| CCN1CCCC1CNC(=O)c1cc2c(OC)cccc2[nH]1 (stereo not given) |  | inconclusive: 15.5% |
| CC1CCCCC1NC(=O)Cn1cccc1C(=O)c1ccccc1 (stereo not given) |  | inconclusive: 16.4% |
| Cc1cccc([C@@H]2[C@@H]3C(=O)N(Cc4ccccc4)C(=O)[C@@H]3[C@]3(Cc4ccccc4)C(=O)N(c4ccccc4)C(=O)N23)c1 | inconclusive: 7.31 µM [activator, partial curve] |  |
| Cc1ccc(N2CC(C(=O)NCCS(=O)(=O)N3CCN(c4ccccc4)CC3)CC2=O)cc1 (stereo not given) |  | inconclusive: 65.6% |
| CN(C)S(=O)(=O)Nc1cccc(Br)c1 |  | inactive |
| COc1cc(OC)c(OC)cc1CNC(=O)c1ccc(S(=O)(=O)N2CCCCC2)cc1 |  | inconclusive: 3.74% |
| COc1cccc(OCC(=O)NC2CCCCC2)c1 |  | inconclusive: -0.0663% |
| Cc1cc(C(=O)OCC(=O)NNC(=O)c2cccs2)ccc1[N+](=O)[O-] |  | inconclusive |
| O=C(CN1C(=O)S/C(=C\c2ccc(Cl)cc2)C1=O)NC1C=CS(=O)(=O)C1 (stereo not given) |  | inconclusive: -81.8% |
| CCC1Oc2ccccc2N(CC(=O)NCCN2CCc3ccccc3C2)C1=O (stereo not given) |  | inconclusive: 15.6% |
| Cc1ccc(-n2nc3c(N4CCC(C(=O)N5CCN(C)CC5)CC4)nnc(C)c3c2C)cc1 | inconclusive: 0.164 µM [falling, full curve, poor fit] |  |
| COc1ccc(CNC(=S)NCc2ccc(Cl)cc2)cc1OC | inconclusive: 25.9 µM [activator, single point] |  |
| O=C(O)c1ccc(-n2c(-c3cc(C4CC4)[nH]n3)n[nH]c2=S)cc1 |  | inconclusive: -25.9% |
| Cc1cccc(C)c1NC(=S)N(Cc1ccco1)C1CCN(C(C)C)CC1 |  | inactive |
